Shown are survivors of the treated group in tumour-free mice. Counts of survivors are from the toxicity check (mostly the fifth day) where no day follows; animals may have died later. Schedule codes are those of the source, taken here to give the interval after Q, in days (D) or hours (H), and the number of doses after X.
System: B6D2F1 mice, nontumored toxicity test, survival
Assay: NCI In Vivo Anticancer Drug Screen. Data for tumor model Nontumored Animals (Toxicity Test) in B6D2F1 (BDF1) mice

Q: Which results are given for `O/N=c1/ccn(O)c2ccccc12`?
A: survivor count (dose: 0.25 mg/kg/injection, schedule: Q03HX024 (ip), vehicle: other): 6 of 6; survivor count (dose: 0.5 mg/kg/injection, schedule: Q03HX008 (ip), vehicle: other): 6 of 6; survivor count (dose: 0.5 mg/kg/injection, schedule: Q03HX016 (ip), vehicle: other): 6 of 6; survivor count (dose: 0.5 mg/kg/injection, schedule: Q03HX024 (ip), vehicle: other): 6 of 6; survivor count (dose: 1.0 mg/kg/injection, schedule: Q01DX005 (ip), vehicle: other): 6 of 6; survivor count (dose: 1.0 mg/kg/injection, schedule: Q01DX009 (ip), vehicle: other): 6 of 6; survivor count (dose: 1.0 mg/kg/injection, schedule: Q01DX009 (sc), vehicle: other): 6 of 6; survivor count (dose: 1.0 mg/kg/injection, schedule: Q03HX008 (ip), vehicle: other): 6 of 6; survivor count (dose: 1.0 mg/kg/injection, schedule: Q03HX016 (ip), vehicle: other): 6 of 6; survivor count (dose: 1.0 mg/kg/injection, schedule: Q03HX024 (ip), vehicle: other): 6 of 6; survivor count (dose: 2.0 mg/kg/injection, schedule: Q01DX005 (ip), vehicle: other): 6 of 6; survivor count (dose: 2.0 mg/kg/injection, schedule: Q01DX009 (ip), vehicle: other): 6 of 6; survivor count (dose: 2.0 mg/kg/injection, schedule: Q01DX009 (sc), vehicle: other): 6 of 6; survivor count (dose: 2.0 mg/kg/injection, schedule: Q03HX008 (ip), vehicle: other): 6 of 6; survivor count (dose: 2.0 mg/kg/injection, schedule: Q03HX016 (ip), vehicle: other): 6 of 6; survivor count (dose: 2.0 mg/kg/injection, schedule: Q03HX024 (ip), vehicle: other): 6 of 6; survivor count (dose: 2.0 mg/kg/injection, schedule: Q04DX003 (ip), vehicle: other): 6 of 6; survivor count (dose: 4.0 mg/kg/injection, schedule: Q01DX001 (ip), vehicle: other): 6 of 6; survivor count (dose: 4.0 mg/kg/injection, schedule: Q01DX001 (sc), vehicle: other): 6 of 6; survivor count (dose: 4.0 mg/kg/injection, schedule: Q01DX005 (ip), vehicle: other): 6 of 6; survivor count (dose: 4.0 mg/kg/injection, schedule: Q01DX009 (ip), vehicle: other): 6 of 6; survivor count (dose: 4.0 mg/kg/injection, schedule: Q01DX009 (oral), vehicle: other): 6 of 6; survivor count (dose: 4.0 mg/kg/injection, schedule: Q01DX009 (sc), vehicle: other): 6 of 6; survivor count (dose: 4.0 mg/kg/injection, schedule: Q03HX008 (ip), vehicle: other): 6 of 6; survivor count (dose: 4.0 mg/kg/injection, schedule: Q03HX016 (ip), vehicle: other): 6 of 6; survivor count (dose: 4.0 mg/kg/injection, schedule: Q03HX024 (ip), vehicle: other): 6 of 6; survivor count (dose: 4.0 mg/kg/injection, schedule: Q04DX003 (ip), vehicle: other): 6 of 6; survivor count (dose: 4.0 mg/kg/injection, schedule: Q08DX002 (ip), vehicle: other): 6 of 6; survivor count (dose: 8.0 mg/kg/injection, schedule: Q01DX001 (ip), vehicle: other): 6 of 6; survivor count (dose: 8.0 mg/kg/injection, schedule: Q01DX001 (oral), vehicle: other): 6 of 6; survivor count (dose: 8.0 mg/kg/injection, schedule: Q01DX001 (sc), vehicle: other): 6 of 6; survivor count (dose: 8.0 mg/kg/injection, schedule: Q01DX005 (ip), vehicle: other): 6 of 6; survivor count (dose: 8.0 mg/kg/injection, schedule: Q01DX009 (ip), vehicle: other): 6 of 6; survivor count (dose: 8.0 mg/kg/injection, schedule: Q01DX009 (oral), vehicle: other): 6 of 6; survivor count (dose: 8.0 mg/kg/injection, schedule: Q01DX009 (sc), vehicle: other): 6 of 6; survivor count (dose: 8.0 mg/kg/injection, schedule: Q03HX008 (ip), vehicle: other): 4 of 6; survivor count (dose: 8.0 mg/kg/injection, schedule: Q04DX003 (ip), vehicle: other): 6 of 6; survivor count (dose: 8.0 mg/kg/injection, schedule: Q08DX002 (ip), vehicle: other): 6 of 6; survivor count (dose: 16.0 mg/kg/injection, schedule: Q01DX001 (ip), vehicle: other): 6 of 6; survivor count (dose: 16.0 mg/kg/injection, schedule: Q01DX001 (oral), vehicle: other): 5 of 6; survivor count (dose: 16.0 mg/kg/injection, schedule: Q01DX001 (sc), vehicle: other): 6 of 6; survivor count (dose: 16.0 mg/kg/injection, schedule: Q01DX005 (ip), vehicle: other): 6 of 6; survivor count (dose: 16.0 mg/kg/injection, schedule: Q01DX009 (oral), vehicle: other): 6 of 6; survivor count (dose: 16.0 mg/kg/injection, schedule: Q04DX003 (ip), vehicle: other): 6 of 6; survivor count (dose: 16.0 mg/kg/injection, schedule: Q08DX002 (ip), vehicle: other): 6 of 6; survivor count (dose: 32.0 mg/kg/injection, schedule: Q01DX001 (ip), vehicle: other): 5 of 6; survivor count (dose: 32.0 mg/kg/injection, schedule: Q01DX001 (oral), vehicle: other): 6 of 6; survivor count (dose: 32.0 mg/kg/injection, schedule: Q01DX001 (sc), vehicle: other): 6 of 6; survivor count (dose: 32.0 mg/kg/injection, schedule: Q01DX009 (oral), vehicle: other): 6 of 6; survivor count (dose: 32.0 mg/kg/injection, schedule: Q04DX003 (ip), vehicle: other): 6 of 6; survivor count (dose: 32.0 mg/kg/injection, schedule: Q08DX002 (ip), vehicle: other): 6 of 6; survivor count (dose: 64.0 mg/kg/injection, schedule: Q01DX001 (ip), vehicle: other): 3 of 6; survivor count (dose: 64.0 mg/kg/injection, schedule: Q01DX001 (oral), vehicle: other): 6 of 6; survivor count (dose: 64.0 mg/kg/injection, schedule: Q01DX001 (sc), vehicle: other): 6 of 6; survivor count (dose: 128.0 mg/kg/injection, schedule: Q01DX001 (oral), vehicle: other): 6 of 6

Q: What does the source list for `COc1ccc(CC(=O)NN)cc1OC`?
A: survivor count (dose: 80.0 mg/kg/injection, schedule: Q04DX002 (ip), vehicle: saline with Tween-80): 10 of 10; survivor count (dose: 100.0 mg/kg/injection, schedule: Q04DX002 (ip), vehicle: saline with Tween-80): 10 of 10; survivor count (dose: 128.0 mg/kg/injection, schedule: Q04DX002 (ip), vehicle: saline with Tween-80): 10 of 10; survivor count (dose: 150.0 mg/kg/injection, schedule: Q04DX002 (ip), vehicle: saline with Tween-80): 10 of 10

Reference: PubChem BioAssay AID186 (DTP/NCI, 2004)
